Data taken from PubChem BioAssay AID912, deposited by NCATS (2007).

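Uptake of anthrax lethal toxin into cultured cells, read by FRET (460/530 nm ratio) and reported from the 460 nm channel; the cell line is not named here. Each compound was tested as a concentration series from about 0.0005 to 40 µM. The number is the fitted AC50 of the 460 nm signal alone; lower values mean a more potent effect. A falling signal goes with compounds filed as inhibitors or cytotoxic, a rising one with activators or fluorescent compounds (inferred from the filed classes).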

Values are in µM. Common to all entries: measured here: 460 nm channel. This is a side read-out of the assay, for part of the compounds, not drawn at random. A potency from a partial, single-point or poor curve is only a rough figure. The first word of each remark tells which way the curve ran; it can be opposite to the aim of the assay.

{"structure": "CC(C)CN1CCCC2(CCN(C(=O)Oc3ccccc3)CC2)C1", "AC50 (µM)": "15.85", "remark": "rising, partial curve"}
{"structure": "Cc1csc(NC(=O)C2CCC(C)(C(=O)O)C2(C)C)n1", "stereo": "stereo unspecified", "AC50 (µM)": "10", "remark": "falling, partial curve"}
{"structure": "COc1ccc(CN2C(=O)CN(C3CCCCCC3)C(=O)C2c2ccc(OC)c(OC)c2)cc1", "stereo": "stereo unspecified", "AC50 (µM)": "0.03162", "remark": "rising, full curve, poor fit"}
{"structure": "O=c1c(-c2ccc(Cl)cc2)nc2cnc(N3CCNCC3)nc2n1Cc1cccs1", "AC50 (µM)": "1.995", "remark": "rising, full curve"}
{"structure": "Cc1ccc(-n2nnnc2SCCNS(=O)(=O)c2ccccc2)cc1C", "AC50 (µM)": "2.512", "remark": "falling, partial curve"}
{"structure": "CN1CCC(c2c[nH]c3ccc(O)cc23)CC1", "AC50 (µM)": "15.85", "remark": "falling, partial curve, poor fit"}
{"structure": "C=CCn1c(SCC(O)Cn2c3ccccc3c3ccccc32)nnc1-c1ccco1", "stereo": "stereo unspecified", "AC50 (µM)": "6.31", "remark": "falling, partial curve"}
{"structure": "CC(C)OC(=O)CSc1nc2ncccc2[nH]1", "AC50 (µM)": "0.1259", "remark": "falling, single point"}
{"structure": "CCOc1ccc(-n2c(O)c(C=Nc3ccc(N4CCOCC4)cc3)c(=O)[nH]c2=O)cc1", "AC50 (µM)": "15.85", "remark": "falling, partial curve"}
{"structure": "COc1ccc(-c2coc3ccc(O[C@@H]4O[C@@H](COC(C)=O)[C@@H](OC(C)=O)[C@@H](OC(C)=O)[C@H]4OC(C)=O)cc3c2=O)cc1", "AC50 (µM)": "0.1", "remark": "falling, full curve, poor fit"}
{"structure": "CCN1C(=O)C2(C(C#N)=C(N)Oc3c2c(C)nn3-c2ccccc2)c2ccccc21", "stereo": "stereo unspecified", "AC50 (µM)": "6.31", "remark": "rising, partial curve"}
{"structure": "Cc1cc(C(=O)Nc2ccccn2)cs1", "AC50 (µM)": "0.7943", "remark": "falling, full curve"}
{"structure": "Cc1cc(C)cc(OCCCC(=O)O)c1", "AC50 (µM)": "7.943", "remark": "rising, partial curve, poor fit"}
{"structure": "Cc1ccnc(NC(=O)CCCOc2cc(=O)n(C)c3ccccc23)c1", "AC50 (µM)": "7.943", "remark": "rising, partial curve"}
{"structure": "COc1ccc(CN(C(=O)CSc2nnc(-c3ccc(F)cc3)o2)c2ccc(F)cc2)cc1", "AC50 (µM)": "12.59", "remark": "falling, partial curve"}
{"structure": "c1cncc(CNc2c3c(nc4nnnn24)CCCC3)c1", "AC50 (µM)": "5.012", "remark": "rising, single point"}
{"structure": "COC(=O)CN(c1c(C)cccc1C)S(C)(=O)=O", "AC50 (µM)": "0.1259", "remark": "falling, full curve"}
{"structure": "Cc1nc2c(c(=O)n1Cc1ccccc1Cl)c1nc3ccccc3nc1n2Cc1ccco1", "AC50 (µM)": "10", "remark": "falling, partial curve"}
{"structure": "Clc1ccc(-c2nnc3ccccn23)cc1", "AC50 (µM)": "0.5012", "remark": "falling, partial curve"}
{"structure": "COc1ccc2c(c1OC)C(=O)O[C@@H]2[C@H]1c2c(cc3c(c2OC)OCO3)CCN1C", "AC50 (µM)": "12.59", "remark": "falling, partial curve"}
{"structure": "CC(=O)O[C@H]1C[C@@H](O[C@@H]2[C@H](C)O[C@H](O[C@@H]3[C@H](C)O[C@H](O[C@@H]4CC[C@@]5(C)[C@@H](CC[C@]6(C)[C@]5(C)C[C@H](O)[C@]5(C)[C@@H](C7=CC(=O)OC7)CC[C@@]56O)C4)C[C@@H]3O)C[C@@H]2O)O[C@@H](C)[C@H]1O[C@H]1O[C@@H](CO)[C@@H](O)[C@@H](O)[C@@H]1O", "AC50 (µM)": "10", "remark": "falling, partial curve"}
{"structure": "CC(C)(C)c1ccc(OC2C(O)COC2/C=C/C#Cc2ccccc2)cc1", "stereo": "stereo unspecified", "AC50 (µM)": "0.1585", "remark": "falling, partial curve"}
{"structure": "COC(=O)[C@@]1(Cc2ccc(OC)cc2)[C@H]2c3cc(C(=O)N4CCCC4)n(CCc4c[nH]c5cc(F)ccc45)c3C[C@H]2CN1C(=O)c1ccccc1", "AC50 (µM)": "31.62", "remark": "falling, single point"}
{"structure": "CCOC(=O)C1CCCN(c2nc3ccccc3nc2C(C#N)C(=O)NCc2ccccc2)C1", "stereo": "stereo unspecified", "AC50 (µM)": "2.512", "remark": "rising, full curve"}
{"structure": "CC(=O)N1C2(C=CC1(C)C(=O)NCc1cc(F)cc(C(F)(F)F)c1)CCCCC2", "stereo": "stereo unspecified", "AC50 (µM)": "10", "remark": "falling, partial curve"}
{"structure": "CCCCCN=c1ccn(Cc2ccccc2)c2ccccc12", "AC50 (µM)": "15.85", "remark": "falling, partial curve"}

Once more, the final 2:

{"structure": "CC(=O)N1C2(C=CC1(C)C(=O)NCc1cc(F)cc(C(F)(F)F)c1)CCCCC2", "stereo": "stereo unspecified", "AC50 (µM)": "10", "remark": "falling, partial curve"}
{"structure": "CCCCCN=c1ccn(Cc2ccccc2)c2ccccc12", "AC50 (µM)": "15.85", "remark": "falling, partial curve"}